No constants are given. Whether binding was seen depends on the method and setting. In cells and extracts the contact can be indirect. Some entries that bind do so weakly or less than the wild type. Sequences can lack the tags named with a protein.
Key:
[1] = target: T1, PE18 (Rv1788), murine dihydrofolate reductase fragment fusion for M-PFC (Mycobacterium tuberculosis) (UniProt L7N649); test: split reporter
T1 sequence: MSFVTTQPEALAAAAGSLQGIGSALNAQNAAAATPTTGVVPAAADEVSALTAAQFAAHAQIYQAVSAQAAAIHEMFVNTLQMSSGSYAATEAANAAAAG

Protein sequences, listed by entry. Tags and fused reporters are not part of them.
UniProt P9WI13: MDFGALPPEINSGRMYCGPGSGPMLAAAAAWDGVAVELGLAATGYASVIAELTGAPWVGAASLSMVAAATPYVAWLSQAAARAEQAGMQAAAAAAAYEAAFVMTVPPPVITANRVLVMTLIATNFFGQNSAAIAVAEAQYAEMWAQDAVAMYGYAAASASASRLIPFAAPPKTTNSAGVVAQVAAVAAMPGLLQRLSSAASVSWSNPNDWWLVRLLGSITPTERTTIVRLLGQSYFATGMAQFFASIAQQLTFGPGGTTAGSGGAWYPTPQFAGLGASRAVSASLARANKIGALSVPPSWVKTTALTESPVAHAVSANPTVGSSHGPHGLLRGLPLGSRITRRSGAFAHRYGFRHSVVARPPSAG

[2] = target: T2, PPE26 (Rv1789), murine dihydrofolate reductase fragment fusion for M-PFC (Mycobacterium tuberculosis) (UniProt Q79FK6); test: split reporter
T2 sequence: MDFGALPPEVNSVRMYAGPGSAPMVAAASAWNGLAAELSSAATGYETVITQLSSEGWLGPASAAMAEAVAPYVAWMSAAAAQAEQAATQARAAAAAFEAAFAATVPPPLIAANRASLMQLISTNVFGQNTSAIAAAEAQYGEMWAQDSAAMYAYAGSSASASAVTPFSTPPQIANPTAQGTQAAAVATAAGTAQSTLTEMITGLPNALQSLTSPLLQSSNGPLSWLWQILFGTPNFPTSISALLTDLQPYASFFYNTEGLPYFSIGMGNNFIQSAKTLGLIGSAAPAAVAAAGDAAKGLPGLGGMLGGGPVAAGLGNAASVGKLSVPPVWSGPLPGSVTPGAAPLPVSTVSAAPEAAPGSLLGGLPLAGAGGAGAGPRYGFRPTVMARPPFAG

[3] = target: T3, PPE26-c-myc (pJEX55-PPE26) (Mycobacterium tuberculosis) (UniProt Q79FK6); test: co-IP
T3 sequence: T2 sequence

[4] = target: T4, PE18 (Rv1788), murine dihydrofolate reductase fragment fusion for M-PFC (Mycobacterium tuberculosis), L7N649; test: split reporter; settings: remark: other sources report otherwise
T4 chain: T1 sequence

“PPE25 (Rv1787), murine dihydrofolate reductase fragment fusion for M-PFC (from UniProt P9WI13 1-365)” was tested, and the binding [1] was “no binding” and the binding [2] was “binds”.

For “PPE25-6xHis (pSCW54-PPE25) (from UniProt P9WI13 1-365)”, the binding [3] was “binds”.

B1: PPE26 (Rv1789), murine dihydrofolate reductase fragment fusion for M-PFC, Q79FK6 1-393 (protein)
chain: T2 sequence
In the case of B1, the binding [4] is reported as “no binding”.

Source: paper doi:10.1101/2023.04.07.535983
